Data as given in patent US11266675B2, “Methods of treatment of viral infection and uses of anti-HSC70 inhibitors” (priority 2018, dated 2022).
Some entries share one result that the patent states for a list of compounds.

Test system: human Hsc70
Assay: Hsc70 knockdown efficiency by qRT-PCR and western blot
Assay type: cell-based
Settings: RD cells, siRNA 75 nM, 48 hours; for Decrease of Hsc70 mRNA level: qRT-PCR; for Decrease of Hsc70 protein level: western blot

| Substance | Decrease of Hsc70 mRNA level | Decrease of Hsc70 protein level |
| --- | --- | --- |
| 5′-UAAUUCUAAGUACAUUGAGACCAGC-3′ (SEQ ID NO: 1) (other siRNA strand not cited, further chemistry not given here) [si-Hsc70-1, small interfering RNA targeting human Hsc70 (NM_006597), synthesized from Genepharma] | more than 70% | more than 70% |
| 5′-CCUAAAUUCGUAGCAAAUU-3′ (SEQ ID NO: 2) (other siRNA strand not cited, further chemistry not given here) [si-Hsc70-2, small interfering RNA targeting human Hsc70 (NM_006597), synthesized from Genepharma] | more than 70% | more than 70% |
